Laboratory results from article PMC7072806.
These are yes or no findings as the source states them, for the method shown. Some results given as binding are weak or reduced against the parent protein; the word gives no strength.

Chains of the proteins cited; added tags and fusions are not shown.
UniProt P51682: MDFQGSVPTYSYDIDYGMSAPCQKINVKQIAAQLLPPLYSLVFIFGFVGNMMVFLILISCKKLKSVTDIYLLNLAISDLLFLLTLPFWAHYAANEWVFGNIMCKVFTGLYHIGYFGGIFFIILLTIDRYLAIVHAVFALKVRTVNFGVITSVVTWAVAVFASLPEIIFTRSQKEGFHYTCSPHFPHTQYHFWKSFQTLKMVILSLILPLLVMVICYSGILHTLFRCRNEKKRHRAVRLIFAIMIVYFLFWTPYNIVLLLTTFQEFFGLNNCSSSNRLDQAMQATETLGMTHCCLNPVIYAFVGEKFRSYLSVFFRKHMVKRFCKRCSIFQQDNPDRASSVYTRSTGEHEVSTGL
UniProt Q99KQ4: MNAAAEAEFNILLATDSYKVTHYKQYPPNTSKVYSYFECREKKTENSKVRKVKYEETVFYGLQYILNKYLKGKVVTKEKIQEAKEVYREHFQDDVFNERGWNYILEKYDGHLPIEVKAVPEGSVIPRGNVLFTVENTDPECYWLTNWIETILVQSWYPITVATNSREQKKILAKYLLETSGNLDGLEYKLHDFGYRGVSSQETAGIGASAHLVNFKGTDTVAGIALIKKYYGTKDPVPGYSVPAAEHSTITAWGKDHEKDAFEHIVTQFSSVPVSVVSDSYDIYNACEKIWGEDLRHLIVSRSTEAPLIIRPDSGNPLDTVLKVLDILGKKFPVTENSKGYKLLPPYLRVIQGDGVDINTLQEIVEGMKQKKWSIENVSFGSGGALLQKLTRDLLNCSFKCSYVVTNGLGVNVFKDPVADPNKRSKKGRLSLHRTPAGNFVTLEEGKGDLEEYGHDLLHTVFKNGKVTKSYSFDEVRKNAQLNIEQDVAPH

Target: Murine C-C chemokine receptor type 5 (CCR5) on HeLa-CCR5 cells (murine) (UniProt P51682)
Assay: flow cytometry on cells; HeLa-CCR5 cells in suspension treated with heparinase I and III (1 h, 4 °C), incubated with eNAMPT (125 µg/mL; 2.25 µM) or maraviroc (10 µM) at 4 °C in complete medium for 20 min, then Rantes-PE (25 ng; 16 nM) for 2 h at 4 °C; percentage of Rantes-PE positive cells; only the binder purified

binding: binds
Substance: Extracellular nicotinamide phosphoribosyltransferase (eNAMPT), wild-type murine full-length, recombinant (from UniProt Q99KQ4 1-491)
